These results are taken from paper PMC4930175.

Experiment [1] deals with Flag epitope-tagged full-length HCV core protein (Hepatitis C virus (genotype and isolate not stated)). Kind of experiment: co-IP; Huh7 cells transfected with Flag-tagged core; lysates (1% Triton X-100, 100 mM Tris-HCl pH 8.0, 150 mM NaCl) immunoprecipitated with anti-Flag-M2 affinity resin (1 h, 4°C, with 2 μg/ml RNaseA) or anti-GLD-2 antibody, then immunoblotting.
Experiment [2] deals with GFP-C(151–191), EGFP-fused HCV core protein deletion derivative (Hepatitis C virus (genotype and isolate not stated)). As to the kind of experiment: co-IP; Huh7 cells transiently expressing GFP-fused core proteins; co-immunoprecipitation with endogenous GLD-2 (Fig 6F); precipitating antibody not told.

These are yes or no findings as the source states them, for the method shown. In cells and extracts the contact can be indirect. A result given as binding can be weak or reduced; the word gives no strength.

B1: GLD-2, non-canonical cytoplasmic poly(A) polymerase (enzyme, UniProt Q6PIY7 1-484)
chain: MFPNSILGRPPFTPNHQQHNNFFTLSPTVYSHQQLIDAQFNFQNADLSRAVSLQQLTYGNVSPIQTSASPLFRGRKRLSDEKNLPLDGKRQRFHSPHQEPTVVNQIVPLSGERRYSMPPLFHTHYVPDIVRCVPPFREIAFLEPREITLPEAKDKLSQQILELFETCQQQISDLKKKELCRTQLQREIQLLFPQSRLFLVGSSLNGFGTRSSDGDLCLVVKEEPCFFQVNQKTEARHILTLVHKHFCTRLSGYIERPQLIRAKVPIVKFRDKVSCVEFDLNVNNIVGIRNTFLLRTYAYLENRVRPLVLVIKKWASHHQINDASRGTLSSYSLVLMVLHYLQTLPEPILPSLQKIYPESFSPAIQLHLVHQAPCNVPPYLSKNESNLGDLLLGFLKYYATEFDWNSQMISVREAKAIPRPDGIEWRNKYICVEEPFDGTNTARAVHEKQKFDMIKDQFLKSWHRLKNKRDLNSILPVRAAVLKR
With B1, the binding result in experiment [1] and in experiment [2] was “binds” throughout.
